Measured values from PubChem BioAssay AID328 (DTP/NCI, 2004).
The list is a part of this screen's results and no random one: it gathers tests that were run many times, whatever their T/C, doses with no T/C, and many T/C values between a quarter and a half above the control. Further doses and runs are listed elsewhere. T/C: endpoint of the treated group in % of that of the vehicle group. Some doses have a count of surviving animals in place of a T/C: the source files T/C as zero there, which appears to mark a toxic dose or a test without result, not a measured value. Some doses without a T/C left all or most animals alive at the check, yet need not have been tolerated: survival well below the control is almost never listed, so the zero probably covers shortened survival too. Survivors were counted at the toxicity check, usually on the fifth day, unless a day is given; later deaths do not show. Schedule codes are those of the source, read here as Q, the interval in days (D) or hours (H), X, the number of doses. Some entries hold several experiments; the results are listed from low to high. For survival time, this PubChem deposit counts one and a half times the control or more as active, and values a quarter to a half above the control carry no call in these data; other NCI protocols may use other cut-offs.

Test system: BDF1 mice, P388 leukemia ip, median survival T/C
Test: NCI In Vivo Anticancer Drug Screen. Data for tumor model P388 Leukemia (intraperitoneal) in B6D2F1 (BDF1) mice
Settings: T/C endpoint: median survival time, higher T/C = longer survival
In short: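 Reported as T/C, where T is the survival measurement in dosed animals and C the same measurement in vehicle controls.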

[1] = dose: 25.0 mg/kg/injection, schedule: Q01DX009 (ip), vehicle: saline with Tween-80
[2] = dose: 100.0 mg/kg/injection, schedule: Q01DX009 (ip), vehicle: saline with Tween-80
[3] = dose: 200.0 mg/kg/injection, schedule: Q01DX009 (ip), vehicle: saline with Tween-80
[4] = dose: 400.0 mg/kg/injection, schedule: Q01DX009 (ip), vehicle: saline with Tween-80
[5] = dose: 50.0 mg/kg/injection, schedule: Q01DX009 (ip), vehicle: saline
[6] = dose: 100.0 mg/kg/injection, schedule: Q01DX009 (ip), vehicle: saline
[7] = dose: 300.0 mg/kg/injection, schedule: Q01DX009 (ip), vehicle: saline with Tween-80

With `CC(C)(Br)C(=O)c1ccc([N+](=O)[O-])o1` the T/C (dose: 0.78 mg/kg/injection, schedule: Q01DX009 (ip), vehicle: saline) was 132 % of control, the T/C (dose: 1.56 mg/kg/injection, schedule: Q01DX009 (ip), vehicle: saline) was 125 % of control and the T/C (dose: 12.5 mg/kg/injection, schedule: Q01DX009 (ip), vehicle: saline) was 133 % of control. For the same compound, the survivor count [1] was 6 of 6, the survivor count (dose: 50.0 mg/kg/injection, schedule: Q01DX009 (ip), vehicle: saline with Tween-80) was 6 of 6 and the survivor count [2] was 6 of 6. For the same compound, the survivor count [3] was 3 of 6, the survivor count (dose: 200.0 mg/kg/injection, schedule: Q04DX003 (ip), vehicle: saline with Tween-80) was 2 of 6 and the survivor count [4] was 1 of 6.

With `Clc1ccc(-c2noc(CN3CCCCC3)n2)cc1` the survivor count [3] was 4 of 6.

With `Cc1ccc2c(ccc(C)[n+]2C)c1` the T/C (dose: 25.0 mg/kg/injection, schedule: Q01DX009 (ip), vehicle: saline) was 140 % of control, the T/C (dose: 44.0 mg/kg/injection, schedule: Q01DX009 (ip), vehicle: saline) was 127 % of control and the T/C [5] was 127 % of control. The T/C (dose: 67.0 mg/kg/injection, schedule: Q01DX009 (ip), vehicle: saline) was 136 % of control, the T/C [6] was 140 % of control and the survivor count [6] was 2 of 6. The survivor count (dose: 150.0 mg/kg/injection, schedule: Q01DX009 (ip), vehicle: saline) was 0 of 6 and 3 of 6.

In the case of `COC(=O)C(Br)c1cccc(OC)c1` (stereo unspecified), the T/C [2] is reported as 135 % of control and the T/C [4] is reported as 135 % of control.

With `Nc1ncc(CNc2ccc(C(=O)NC(CCC(=O)O)C(=O)O)cc2)c(N)n1` (stereo unspecified) the T/C (dose: 200.0 mg/kg/injection, schedule: Q01DX009 (ip), vehicle: Klucel (hydroxypropylcellulose) (HPC)) was 134 % of control and the survivor count (dose: 400.0 mg/kg/injection, schedule: Q01DX009 (ip), vehicle: Klucel (hydroxypropylcellulose) (HPC)) was 6 of 6.

With `CCC12C=CCN3CCC4(c5cc(C(c6ccc(OC)cc6)c6c(CN7CCCCC7)c7ccccc7n6C)c(OC)cc5N(C)C4C(O)(C(=O)OC)C1OC(C)=O)C32` (stereo unspecified) the survivor count (dose: 0.3 mg/kg/injection, schedule: Q01DX009 (ip), vehicle: saline) was 6 of 6, the survivor count (dose: 0.6 mg/kg/injection, schedule: Q01DX009 (ip), vehicle: saline) was 6 of 6 and the survivor count (dose: 4.0 mg/kg/injection, schedule: Q01DX009 (ip), vehicle: saline) was 6 of 6. The survivor count (dose: 8.0 mg/kg/injection, schedule: Q01DX009 (ip), vehicle: saline) was 5 of 6 and the survivor count (dose: 16.0 mg/kg/injection, schedule: Q01DX009 (ip), vehicle: saline) was 6 of 6.

`IC1CCCOC1[n+]1ccccc1` (stereo unspecified) was tested, and the survivor count (dose: 50.0 mg/kg/injection, schedule: Q04DX003 (ip), vehicle: saline with Tween-80) was 6 of 6.

For `Cc1ccc(C(=O)N(N)C2CCCCC2)cc1`, the survivor count [1] was 6 of 6 and the survivor count [2] was 6 of 6.

In the case of `CC(C)OC(=S)SSc1nc2ccccc2s1`, the T/C (dose: 37.5 mg/kg/injection, schedule: Q01DX009 (ip), vehicle: saline) is reported as 125 % of control, the survivor count (dose: 150.0 mg/kg/injection, schedule: Q01DX009 (ip), vehicle: saline with Tween-80) is reported as 6 of 6 and the survivor count [7] is reported as 2 of 6.

With `COC(=O)c1ccc(SCCCN2CCOCC2)cc1` the T/C (dose: 400.0 mg/kg/injection, schedule: Q04DX003 (ip), vehicle: saline) was 127 % of control.

With `COc1cc(Cl)ccc1C` the T/C (dose: 132.0 mg/kg/injection, schedule: Q01DX009 (ip), vehicle: saline with Tween-80) was 128 % of control, the T/C [3] was 130 % of control and the survivor count [7] was 6 of 6.

For `O=S(=O)(C=C(N1CCCCC1)N1CCCCC1)Cc1ccccc1`, the survivor count [5] was 3 of 6, the survivor count (dose: 80.0 mg/kg/injection, schedule: Q01DX009 (ip), vehicle: saline) was 0 of 6 and the survivor count (dose: 105.0 mg/kg/injection, schedule: Q04DX003 (ip), vehicle: saline) was 6 of 6. The survivor count (dose: 120.0 mg/kg/injection, schedule: Q01DX009 (ip), vehicle: saline) was 0 of 6.

For `Cc1nc2c(=O)[nH]n(C)c2nc1C`, the survivor count [4] was 5 of 6.
